The data set concerns the molecule itself. As to the kind of experiment: dialysis against 10 mM PB; self-aggregation.

These results are taken from US20210163576A1 (JIANGNAN UNIVERSITY, published 2021).

B1: E3-VBB-K3 (containing 6xHis tags) (designed binder)
chain: HHHHHHGEISALEKEISALEKEISALEKGGGGGGGADEQEEKAKVRTELIQELAQGLGGIEKKNFPTLGDEDLDHTYMTKLLTYLQEREQAENSWRKRLLKGIQDHALDPGPRGEQGPQGLPGKDGEAGAQGPAGPMGPAGFPGERGEKGEPGTQGAKGDRGETGPVGPRGERGEAGPAGKDGERGPVGPAGPRGEQGPQGLPGKDGEAGAQGPAGPMGPAGFPGERGEKGEPGTQGAKGDRGETGPVGPRGERGEAGPAGKDGERGPVGPAGGGGGGGGKISALKEKISALKEKISALKE
notes: As E3-VB-K3 but with two repeated B collagen regions; also called collagen E3-VBB-K3; designed collagen E3-VBB-K3
Regarding B1, the binding result was “binds”.

B2: E3-VB-K3 (containing 6xHis tags) (designed binder)
chain: HHHHHHGEISALEKEISALEKEISALEKGGGGGGGADEQEEKAKVRTELIQELAQGLGGIEKKNFPTLGDEDLDHTYMTKLLTYLQEREQAENSWRKRLLKGIQDHALDPGPRGEQGPQGLPGKDGEAGAQGPAGPMGPAGFPGERGEKGEPGTQGAKGDRGETGPVGPRGERGEAGPAGKDGERGPVGPAGGGGGGGGKISALKEKISALKEKISALKE
notes: 6xHis, E3 helix, glycine linker, V-domain, one B collagen region, glycine linker, K3 helix; also called collagen E3-VB-K3; designed collagen E3-VB-K3
Turning to B2, the binding result is given as “binds”.

B3: E3-VBBB-K3 (containing 6xHis tags) (designed binder)
chain: HHHHHHGEISALEKEISALEKEISALEKGGGGGGGADEQEEKAKVRTELIQELAQGLGGIEKKNFPTLGDEDLDHTYMTKLLTYLQEREQAENSWRKRLLKGIQDHALDPGPRGEQGPQGLPGKDGEAGAQGPAGPMGPAGFPGERGEKGEPGTQGAKGDRGETGPVGPRGERGEAGPAGKDGERGPVGPAGPRGEQGPQGLPGKDGEAGAQGPAGPMGPAGFPGERGEKGEPGTQGAKGDRGETGPVGPRGERGEAGPAGKDGERGPVGPAGPRGEQGPQGLPGKDGEAGAQGPAGPMGPAGFPGERGEKGEPGTQGAKGDRGETGPVGPRGERGEAGPAGKDGERGPVGPAGGGGGGGGKISALKEKISALKEKISALKE
notes: As E3-VB-K3 but with three repeated B collagen regions; also called collagen E3-VBBB-K3; designed collagen E3-VBBB-K3
Regarding B3, the binding result was “binds”.
